The results in this text go back to paper PMC8621148, “Determination of the Protein-Protein Interactions within Acyl Carrier Protein (MmcB)-Dependent Modifications in the Biosynthesis of Mitomycin” (Molecules, 2021).

No constants are given. Whether binding was seen depends on the method and setting. Some results given as binding are weak or reduced against the parent protein; the word gives no strength. Tags and fused reporters may be left off the sequences shown.

The target in this test is T1, MitF, reductase (Streptomyces lavendulae NRRL 2564, UniProt Q9X5R6 1-257).
T1 construct: MitF, reductase of the mitomycin C biosynthetic gene cluster, Streptomyces lavendulae NRRL 2564; source: E. coli BL21(DE3), pET30a (pJQK414), purified (Ni-NTA, FPLC); not shown: His6, N-terminal, kept
T1 sequence (looked up): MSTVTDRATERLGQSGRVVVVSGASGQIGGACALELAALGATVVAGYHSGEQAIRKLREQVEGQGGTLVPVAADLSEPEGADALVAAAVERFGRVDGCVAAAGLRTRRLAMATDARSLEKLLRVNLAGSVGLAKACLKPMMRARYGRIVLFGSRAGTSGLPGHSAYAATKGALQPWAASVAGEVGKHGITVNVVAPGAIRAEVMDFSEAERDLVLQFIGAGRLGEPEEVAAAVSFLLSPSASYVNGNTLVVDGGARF
The experiment in a line: pull-down; MitB or MitF incubated with tag-free holo-MmcB, 100 µL, 10 mM PBS pH 7.5, 1 h at 30 °C; mixture put on His-bind resin, eluted with 20-100 mM imidazole, SDS-PAGE; both purified.

B1: holo-MmcB (acyl carrier protein MmcB, tag-free) (natural protein, Streptomyces lavendulae NRRL 2564, UniProt Q9X5S0 1-93, looked up)
chain: METLTTDKIKDRLRKVLVDSLELSLDPSAVPDEGLVEKLGLDSINTIEFLIWVESEFGIEIADEDLSIKLIDSLDLLAGYVSERVNGVTAPAE
modifications: 4'-phosphopantetheine at Ser43 (holo-form)
notes: MmcB, acyl carrier protein of the mitomycin C biosynthetic gene cluster, Streptomyces lavendulae NRRL 2564; 93 amino acid residues; gene synthesised with codons optimised for E. coli; The methods name the holo form for both the pull-down and SPR; also called ACP; tag-free MmcB; not shown: His6, C-terminal, cleaved
As for B1, the binding result is recorded as “binds”.
